Measurements from patent US8299209B2, “Pharmaceutical composition comprising cyclic somatostatin analogues” (Novartis AG, priority 2003, dated 2012).
Not every detail of the peptide structures is certain; ends, links or a residue may be inferred. Numbered stars: 1 amine (or outer) side, 2 acyl side, 3 side chain; on linkers, the order of the positions; unused ones are H or OH. Square brackets hold non-standard residues; d marks the D form. Side chains are listed from the residue outwards. Peptide text beside a SMILES is read from it. * marks the point of attachment. DOTA = O=C(O)CN1CCN(CC(=O)O)CCN(CC(=O)*)CCN(CC(=O)O)CC1; Ethylenediamine = C(CN[*:2])N[*:1]; Hyp = O=C(O)[C@@H]1C[C@@H](O)CN1; dPhg = N[C@@H](C(=O)O)c1ccccc1; CO = O=C([*:1])[*:2]; Bn = c1ccc(C*)cc1

How the values were obtained:
[1] = system: hsst5 bearing tumor cells; experiment: nude mice test with hsst5 bearing tumor cells; type: in vivo; conditions: complexed with 90Y or 177Lu, single application
somatostatin receptors = experiment: binding of conjugated and complexed compounds to somatostatin receptors; conditions: complexed with e.g. 111In, 88Y, 90Y or 177Lu

In the case of `NCCCC[C@@H]1NC(=O)[C@@H](Cc2c[nH]c3ccccc23)NC(=O)[C@@H](c2ccccc2)NC(=O)[C@@H]2C[C@@H](OC(=O)NCCNC(=O)CN3CCN(CC(=O)O)CCN(CC(=O)O)CCN(CC(=O)O)CC3)CN2C(=O)[C@H](Cc2ccccc2)NC(=O)[C@H](Cc2ccc(OCc3ccccc3)cc2)NC1=O` [Example 10, Cyclo [{4-(DOTA-NH—C2H4—NH—CO—O—)Pro}-DPhg-DTrp-Lys-Tyr(4-Bzl)-Phe] (cyclo(F[Hyp]([CO-Ethylenediamine-DOTA])[dPhg][dW]KY(Bn))), the tumor growth delay [1] is reported as “tumor growth is delayed for two weeks”, the tumor size change ([1]; after one week) is reported as “transient tumor shrinkage” and the “binding to the respective sst sub-types (in words)” value (somatostatin receptors) is reported as “binds in the nM range”.
